Measured values: the supplement of paper PMC11006884
Most of the targets with a hit are listed elsewhere, so they are rarer here than in the full data. Single values of this set are uncertain. This is a selection; strong and weak results do not stand in their true shares.

The chains behind the UniProt entries cited, without tags or fusion partners. Where a name states a change or a piece, a line headed by the entry shows the natural chain unless it says otherwise.
UniProt P49840: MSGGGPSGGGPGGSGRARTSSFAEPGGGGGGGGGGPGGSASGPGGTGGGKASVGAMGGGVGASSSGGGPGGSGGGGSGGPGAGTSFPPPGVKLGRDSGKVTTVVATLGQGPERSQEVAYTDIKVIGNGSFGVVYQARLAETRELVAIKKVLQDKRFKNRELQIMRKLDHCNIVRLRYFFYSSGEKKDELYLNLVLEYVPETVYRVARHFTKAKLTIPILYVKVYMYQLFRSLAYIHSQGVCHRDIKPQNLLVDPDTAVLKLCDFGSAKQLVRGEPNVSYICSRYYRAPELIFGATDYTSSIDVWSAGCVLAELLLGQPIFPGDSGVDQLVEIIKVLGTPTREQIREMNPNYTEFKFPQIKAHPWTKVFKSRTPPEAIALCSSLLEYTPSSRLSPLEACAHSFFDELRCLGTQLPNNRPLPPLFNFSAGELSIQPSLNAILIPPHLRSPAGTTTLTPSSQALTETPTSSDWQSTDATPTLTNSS
UniProt P51570: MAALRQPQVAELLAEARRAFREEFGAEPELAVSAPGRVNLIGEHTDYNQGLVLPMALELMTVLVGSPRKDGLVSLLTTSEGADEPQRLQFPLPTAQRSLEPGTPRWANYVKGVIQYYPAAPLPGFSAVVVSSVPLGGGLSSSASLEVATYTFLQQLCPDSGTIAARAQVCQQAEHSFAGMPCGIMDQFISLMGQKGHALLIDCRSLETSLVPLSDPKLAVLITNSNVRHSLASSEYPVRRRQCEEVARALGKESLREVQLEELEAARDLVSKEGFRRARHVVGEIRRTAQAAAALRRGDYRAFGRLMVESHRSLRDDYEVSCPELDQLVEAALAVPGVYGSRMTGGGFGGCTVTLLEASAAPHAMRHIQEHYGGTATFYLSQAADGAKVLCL
UniProt P50570: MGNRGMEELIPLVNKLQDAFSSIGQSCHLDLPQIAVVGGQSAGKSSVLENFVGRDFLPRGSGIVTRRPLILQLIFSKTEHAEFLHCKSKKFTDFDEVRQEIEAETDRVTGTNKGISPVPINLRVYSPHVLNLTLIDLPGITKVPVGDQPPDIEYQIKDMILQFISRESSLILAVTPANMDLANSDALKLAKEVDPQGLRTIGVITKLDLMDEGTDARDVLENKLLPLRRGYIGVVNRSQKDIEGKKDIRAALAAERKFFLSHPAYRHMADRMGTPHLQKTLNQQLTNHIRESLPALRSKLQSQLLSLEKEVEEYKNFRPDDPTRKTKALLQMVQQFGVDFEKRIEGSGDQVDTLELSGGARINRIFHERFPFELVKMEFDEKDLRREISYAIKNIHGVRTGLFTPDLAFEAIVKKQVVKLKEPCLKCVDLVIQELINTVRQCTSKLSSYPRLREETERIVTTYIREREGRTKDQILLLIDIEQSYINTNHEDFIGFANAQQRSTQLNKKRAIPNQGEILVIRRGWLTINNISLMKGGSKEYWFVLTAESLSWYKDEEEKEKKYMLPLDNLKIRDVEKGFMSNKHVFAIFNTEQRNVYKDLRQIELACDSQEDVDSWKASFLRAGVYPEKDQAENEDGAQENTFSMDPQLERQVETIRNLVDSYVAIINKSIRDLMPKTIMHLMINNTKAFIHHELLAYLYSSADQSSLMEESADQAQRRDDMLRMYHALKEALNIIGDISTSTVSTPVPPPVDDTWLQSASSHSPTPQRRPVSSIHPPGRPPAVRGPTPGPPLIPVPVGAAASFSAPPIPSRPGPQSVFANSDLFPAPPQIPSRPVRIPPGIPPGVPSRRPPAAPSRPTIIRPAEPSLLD
UniProt P47756, whole entry, looked up: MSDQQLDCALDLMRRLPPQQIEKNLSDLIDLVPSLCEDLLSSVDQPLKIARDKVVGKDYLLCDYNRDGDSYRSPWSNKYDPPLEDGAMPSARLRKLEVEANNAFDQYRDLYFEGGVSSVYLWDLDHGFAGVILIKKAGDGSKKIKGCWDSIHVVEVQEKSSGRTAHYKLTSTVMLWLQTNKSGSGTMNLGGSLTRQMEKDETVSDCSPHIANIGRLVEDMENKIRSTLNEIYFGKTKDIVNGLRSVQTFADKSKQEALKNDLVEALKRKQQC
UniProt P49327, whole entry, looked up: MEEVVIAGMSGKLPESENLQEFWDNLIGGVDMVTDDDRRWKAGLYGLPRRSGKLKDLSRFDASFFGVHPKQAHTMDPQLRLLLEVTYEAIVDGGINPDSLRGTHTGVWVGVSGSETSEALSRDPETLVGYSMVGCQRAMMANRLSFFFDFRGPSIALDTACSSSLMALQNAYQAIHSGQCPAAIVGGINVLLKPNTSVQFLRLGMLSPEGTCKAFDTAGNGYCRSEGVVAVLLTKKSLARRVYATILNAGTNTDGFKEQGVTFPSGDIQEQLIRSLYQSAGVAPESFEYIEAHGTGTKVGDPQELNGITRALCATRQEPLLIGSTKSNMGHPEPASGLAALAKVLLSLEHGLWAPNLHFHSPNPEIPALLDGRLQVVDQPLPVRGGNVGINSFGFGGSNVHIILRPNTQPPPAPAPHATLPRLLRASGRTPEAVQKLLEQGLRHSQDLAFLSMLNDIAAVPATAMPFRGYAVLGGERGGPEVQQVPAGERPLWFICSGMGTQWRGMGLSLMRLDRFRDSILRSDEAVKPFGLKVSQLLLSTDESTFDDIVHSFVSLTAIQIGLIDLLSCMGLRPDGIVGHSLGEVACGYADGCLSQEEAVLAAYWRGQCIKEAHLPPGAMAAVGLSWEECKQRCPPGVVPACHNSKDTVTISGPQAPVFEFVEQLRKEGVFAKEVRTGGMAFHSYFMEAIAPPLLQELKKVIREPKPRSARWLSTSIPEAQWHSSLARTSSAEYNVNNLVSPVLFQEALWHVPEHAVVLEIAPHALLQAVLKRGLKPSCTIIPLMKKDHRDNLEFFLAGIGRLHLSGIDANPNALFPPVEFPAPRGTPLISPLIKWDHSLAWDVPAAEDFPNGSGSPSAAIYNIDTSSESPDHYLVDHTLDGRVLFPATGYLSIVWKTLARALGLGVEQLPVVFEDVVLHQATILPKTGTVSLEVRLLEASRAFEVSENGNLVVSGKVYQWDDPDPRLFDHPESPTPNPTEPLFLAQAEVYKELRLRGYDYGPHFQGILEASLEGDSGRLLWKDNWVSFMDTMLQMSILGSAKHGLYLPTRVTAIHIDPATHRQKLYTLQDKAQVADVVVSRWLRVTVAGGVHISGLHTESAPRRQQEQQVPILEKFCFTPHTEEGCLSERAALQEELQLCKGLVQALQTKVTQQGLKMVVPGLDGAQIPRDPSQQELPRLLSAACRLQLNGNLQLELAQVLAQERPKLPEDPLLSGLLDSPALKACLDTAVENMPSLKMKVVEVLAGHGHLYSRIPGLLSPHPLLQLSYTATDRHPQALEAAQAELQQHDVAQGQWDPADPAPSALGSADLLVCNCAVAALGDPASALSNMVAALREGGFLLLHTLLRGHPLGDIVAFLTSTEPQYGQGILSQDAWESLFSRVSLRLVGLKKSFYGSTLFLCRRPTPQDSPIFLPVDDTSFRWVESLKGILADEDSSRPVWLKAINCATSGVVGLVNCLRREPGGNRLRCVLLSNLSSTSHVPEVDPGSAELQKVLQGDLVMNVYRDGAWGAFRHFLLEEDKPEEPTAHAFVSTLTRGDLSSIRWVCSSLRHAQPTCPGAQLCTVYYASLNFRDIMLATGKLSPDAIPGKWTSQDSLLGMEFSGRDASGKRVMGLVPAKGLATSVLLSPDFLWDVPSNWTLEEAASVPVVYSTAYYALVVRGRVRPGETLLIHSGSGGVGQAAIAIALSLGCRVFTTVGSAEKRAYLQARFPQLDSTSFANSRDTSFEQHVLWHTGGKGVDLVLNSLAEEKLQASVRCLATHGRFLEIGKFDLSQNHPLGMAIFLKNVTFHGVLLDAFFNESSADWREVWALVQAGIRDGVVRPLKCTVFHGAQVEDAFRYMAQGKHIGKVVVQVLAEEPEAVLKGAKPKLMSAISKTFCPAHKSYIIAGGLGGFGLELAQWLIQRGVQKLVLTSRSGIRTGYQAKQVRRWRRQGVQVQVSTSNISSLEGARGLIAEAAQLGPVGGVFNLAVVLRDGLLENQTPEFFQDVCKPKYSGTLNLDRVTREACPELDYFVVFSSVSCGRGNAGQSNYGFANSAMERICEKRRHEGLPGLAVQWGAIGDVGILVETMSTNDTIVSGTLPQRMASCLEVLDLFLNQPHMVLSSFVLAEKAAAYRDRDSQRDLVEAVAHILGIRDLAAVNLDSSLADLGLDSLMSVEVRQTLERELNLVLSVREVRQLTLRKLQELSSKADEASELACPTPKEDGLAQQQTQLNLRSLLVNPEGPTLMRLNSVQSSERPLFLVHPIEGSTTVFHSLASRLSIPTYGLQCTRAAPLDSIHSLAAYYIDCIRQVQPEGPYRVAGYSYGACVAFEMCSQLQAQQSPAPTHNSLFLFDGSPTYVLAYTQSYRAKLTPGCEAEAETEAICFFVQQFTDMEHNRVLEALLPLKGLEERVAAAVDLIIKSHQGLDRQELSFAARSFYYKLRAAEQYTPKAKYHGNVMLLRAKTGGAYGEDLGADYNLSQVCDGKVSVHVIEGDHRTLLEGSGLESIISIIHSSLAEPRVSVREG
UniProt P49588, whole entry, looked up: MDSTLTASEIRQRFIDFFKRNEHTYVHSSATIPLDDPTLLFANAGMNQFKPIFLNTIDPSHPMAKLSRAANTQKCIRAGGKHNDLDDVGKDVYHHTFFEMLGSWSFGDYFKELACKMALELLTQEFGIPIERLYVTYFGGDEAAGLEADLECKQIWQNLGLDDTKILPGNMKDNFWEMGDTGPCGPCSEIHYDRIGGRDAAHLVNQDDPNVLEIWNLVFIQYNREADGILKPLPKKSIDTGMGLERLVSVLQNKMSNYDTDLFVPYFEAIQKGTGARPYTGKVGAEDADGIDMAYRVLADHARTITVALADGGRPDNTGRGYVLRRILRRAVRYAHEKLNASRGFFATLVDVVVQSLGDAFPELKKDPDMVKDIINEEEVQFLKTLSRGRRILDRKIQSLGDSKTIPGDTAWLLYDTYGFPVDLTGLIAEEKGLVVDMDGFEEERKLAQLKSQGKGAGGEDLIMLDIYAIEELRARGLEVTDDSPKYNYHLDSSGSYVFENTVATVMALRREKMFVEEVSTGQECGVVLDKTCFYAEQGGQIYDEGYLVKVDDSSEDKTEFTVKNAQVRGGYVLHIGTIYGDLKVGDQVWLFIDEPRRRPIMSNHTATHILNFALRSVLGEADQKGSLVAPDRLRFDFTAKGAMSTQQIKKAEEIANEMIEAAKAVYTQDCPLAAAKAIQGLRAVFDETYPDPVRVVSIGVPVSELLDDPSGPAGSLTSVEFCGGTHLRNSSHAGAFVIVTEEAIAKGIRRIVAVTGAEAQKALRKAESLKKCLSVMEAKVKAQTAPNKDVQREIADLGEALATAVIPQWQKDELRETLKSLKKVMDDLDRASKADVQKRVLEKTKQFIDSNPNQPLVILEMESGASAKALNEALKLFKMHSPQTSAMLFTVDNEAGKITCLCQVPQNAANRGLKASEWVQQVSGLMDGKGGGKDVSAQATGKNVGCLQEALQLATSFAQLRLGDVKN
UniProt P46060: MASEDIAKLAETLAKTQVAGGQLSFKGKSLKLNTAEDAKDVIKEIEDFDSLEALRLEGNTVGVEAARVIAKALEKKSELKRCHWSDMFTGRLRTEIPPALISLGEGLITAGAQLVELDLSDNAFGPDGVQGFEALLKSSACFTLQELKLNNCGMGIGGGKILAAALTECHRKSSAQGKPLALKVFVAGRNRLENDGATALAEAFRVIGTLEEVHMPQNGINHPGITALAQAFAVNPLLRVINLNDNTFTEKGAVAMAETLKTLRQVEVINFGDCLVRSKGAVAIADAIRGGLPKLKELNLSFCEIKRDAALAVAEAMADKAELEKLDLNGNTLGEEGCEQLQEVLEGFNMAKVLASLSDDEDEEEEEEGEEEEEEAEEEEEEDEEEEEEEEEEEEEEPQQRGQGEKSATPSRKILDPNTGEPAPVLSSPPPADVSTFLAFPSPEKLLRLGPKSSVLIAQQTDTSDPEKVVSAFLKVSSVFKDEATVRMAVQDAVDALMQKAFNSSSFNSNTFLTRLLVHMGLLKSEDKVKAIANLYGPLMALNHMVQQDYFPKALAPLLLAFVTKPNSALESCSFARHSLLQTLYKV
UniProt P43487, whole entry, looked up: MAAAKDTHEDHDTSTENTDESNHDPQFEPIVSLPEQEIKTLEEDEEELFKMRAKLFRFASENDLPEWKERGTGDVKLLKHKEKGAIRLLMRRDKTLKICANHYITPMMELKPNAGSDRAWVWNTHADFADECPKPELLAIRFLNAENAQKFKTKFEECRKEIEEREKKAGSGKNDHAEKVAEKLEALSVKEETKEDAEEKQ
UniProt P46109: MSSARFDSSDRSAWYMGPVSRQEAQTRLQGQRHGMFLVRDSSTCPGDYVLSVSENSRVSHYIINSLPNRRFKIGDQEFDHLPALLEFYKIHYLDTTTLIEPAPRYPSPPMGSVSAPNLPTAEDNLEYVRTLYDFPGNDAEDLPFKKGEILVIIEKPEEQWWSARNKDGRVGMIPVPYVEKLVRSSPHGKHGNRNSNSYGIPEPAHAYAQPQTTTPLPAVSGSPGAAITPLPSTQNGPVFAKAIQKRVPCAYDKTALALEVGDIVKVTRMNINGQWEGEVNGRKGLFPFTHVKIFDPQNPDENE

The targets below were run with COC(=O)/C=C/c1ccccc1 [methyl cinnamate] (assay: log2 ratio of iodoacetamide-alkyne labeling of the cysteine site, DMSO over compound (competition); higher = stronger covalent engagement of the cysteine by the compound, active = 1 or more). Conditions: 500 µM; treatment time 1 h; system: HEK293T cell lysate.
Summary of the method: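 For each cysteine, the log2 competition ratio is mean control-channel reporter intensity over mean compound-channel reporter intensity. HEK293T lysate (2 mg/mL) was exposed to vehicle or electrophile (500 µM, 1 h, ambient temperature), labelled with iodoacetamide alkyne (1 h), clicked to sCIP-TMT reagents, digested overnight with trypsin at 37 °C, streptavidin-enriched and analysed by Orbitrap Eclipse LC-MS/MS with FAIMS and FragPipe. Cysteines quantified in only one of three replicates, each with duplicate channels, were excluded.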

log2 ratio of iodoacetamide-alkyne labeling, inactive:
PCYT1A C73 (UniProt P49585) 0.39, UniProt P49840_C408 0.3, LIMS1 C303 (UniProt P48059) 0.375, GALK1 C351 (UniProt P51570) -0.0851, DNM2 C27 (UniProt P50570) 0.0421, NUP153 C585 (UniProt P49790) 0.0581, UniProt P48230_C2 0.0901, NASP C84 (UniProt P49321) 0.195, IRAK1 C620 (UniProt P51617) 0.0906, MSH2 C199 (UniProt P43246) 0.309, SMARCA4 C1359 (UniProt P51532) 0.126, CCT8 C430 (UniProt P50990) 0.425, CAPZB C206 (UniProt P47756) 0.297, RPL34 C49 (UniProt P49207) 0.24, NDUFV1 C286 (UniProt P49821) -0.0384, VDAC2 C13 (UniProt P45880) 0.158, RANBP2 C1335 (UniProt P49792) -0.00746, RANBP2 C220 (UniProt P49792) 0.0399, FASN C313 (UniProt P49327) 0.262, FASN C1471 (UniProt P49327) 0.221, RAB28 C31 (UniProt P51157) 0.197, VDAC2 C8 (UniProt P45880) 0.114, UniProt P49591_C438 0.128, CLK1 C200 (UniProt P49759) 0.264, UniProt P46734_C29 0.44, FASN C2202 (UniProt P49327) 0.356, GMPS C137 (UniProt P49915) 0.452, NUP153 C404 (UniProt P49790) 0.365, DHPS C142 (UniProt P49366) 0.104, CCT4 C450 (UniProt P50991) 0.289, AARS C723 (UniProt P49588) 0.124, RANGAP1 C573 (UniProt P46060) -0.112, PPOX C183 (UniProt P50336) 0.17, RANBP1 C99 (UniProt P43487) 0.108, CRKL C44 (UniProt P46109) 0.121, IQGAP1 C781 (UniProt P46940) 0.432, MKI67 C3014 (UniProt P46013) -0.091
